No constants are given. Whether binding was seen depends on the method and setting. For some assays here: Binding can be weak; no strength is given.
B1: Mck1 (enzyme, UniProt P21965 1-375)
chain: MSTEEQNGVPLQRGSEFIADDVTSNKSNNTRRMLVKEYRKIGRGAFGTVVQAYLTQDKKNWLGPFAIKKVPAHTEYKSRELQILRIADHPNIVKLQYFFTHLSPQDNKVYQHLAMECLPETLQIEINRYVTNKLEMPLKHIRLYTYQIARGMLYLHGLGVCHRDIKPSNVLVDPETGVLKICDFGSAKKLEHNQPSISYICSRFYRAPELIIGCTQYTTQIDIWGLGCVMGEMLIGKAIFQGQEPLLQLREIAKLLGPPDKRFIFFSNPAYDGPLFSKPLFSGSSQQRFEKYFGHSGPDGIDLLMKILVYEPQQRLSPRRILAHQFFNELRNDDTFLPRGFTEPIKLPNLFDFNDFELQILGEFADKIKPTKVAE

Protein sequences, listed by entry. Tags and fused reporters are not part of them.
UniProt P22216: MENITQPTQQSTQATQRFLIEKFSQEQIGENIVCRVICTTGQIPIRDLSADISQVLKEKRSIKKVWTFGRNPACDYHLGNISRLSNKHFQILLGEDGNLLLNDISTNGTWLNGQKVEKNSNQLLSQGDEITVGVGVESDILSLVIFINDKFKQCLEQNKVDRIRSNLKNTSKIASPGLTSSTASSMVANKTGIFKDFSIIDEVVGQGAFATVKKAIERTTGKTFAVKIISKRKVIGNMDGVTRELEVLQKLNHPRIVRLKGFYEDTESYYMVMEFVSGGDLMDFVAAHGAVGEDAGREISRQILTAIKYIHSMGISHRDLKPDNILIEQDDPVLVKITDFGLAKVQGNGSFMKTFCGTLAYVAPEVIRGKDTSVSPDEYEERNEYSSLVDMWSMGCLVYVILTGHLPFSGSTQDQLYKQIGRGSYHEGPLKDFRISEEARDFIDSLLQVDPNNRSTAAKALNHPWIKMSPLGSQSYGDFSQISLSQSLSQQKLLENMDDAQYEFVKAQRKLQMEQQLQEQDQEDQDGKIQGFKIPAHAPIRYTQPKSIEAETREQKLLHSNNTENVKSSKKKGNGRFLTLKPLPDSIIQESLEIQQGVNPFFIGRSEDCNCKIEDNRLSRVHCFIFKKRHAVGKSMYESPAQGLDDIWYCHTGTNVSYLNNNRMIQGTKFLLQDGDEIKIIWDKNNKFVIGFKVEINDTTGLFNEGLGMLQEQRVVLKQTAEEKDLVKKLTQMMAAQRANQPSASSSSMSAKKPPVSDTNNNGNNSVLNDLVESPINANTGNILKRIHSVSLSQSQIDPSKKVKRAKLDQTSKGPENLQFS

Tests used:
Rad53 (S. cerevisiae) = Rad53 (S. cerevisiae) (UniProt P22216); experiment: two-hybrid; MCK1 in pGADT7, RAD53 in pGBKT7; strain AH109; growth on SC-Trp-Leu or SC-Trp-Leu-His plates with 0.5 mM 3-amino-triazole (3AT)
[1] = target: FHA1 domain of Rad53 (S. cerevisiae); experiment: as above

Row | Molecule | binding (Rad53 (S. cerevisiae)) | binding [1]
1 | mck1-T6A (from UniProt P21965) (enzyme) | no binding | –
2 | B1 | – | binds
